Entries after “also recorded” stand apart in the source; their conditions may differ. For some assays here: At least one compound was matched to its structure with a doubt left. Some of these results come from one statement about several compounds together.
Key:
mammalian cells = conditions: 10 μM; cited from earlier work
[1] = target: T1, ternary complex consisting of GFP-ABD-L253P, Lifeact-mCherry, and actin (Homo sapiens, UniProt O15020, L253P); test: Primary live-cell time-resolved FRET assay (GFP-ABD-L253P plus Lifeact-mCherry); type: cell-based
T1 construct: L252P β-III-spectrin (human) ABD residues 1-284; expressed in transfected cells; host or cells: HEK293-6E, pTT5 vector, transient

Amino acid sequences for entries named in this document (tags omitted). Residues count along the entry.
UniProt O15020, 1-284 L253P: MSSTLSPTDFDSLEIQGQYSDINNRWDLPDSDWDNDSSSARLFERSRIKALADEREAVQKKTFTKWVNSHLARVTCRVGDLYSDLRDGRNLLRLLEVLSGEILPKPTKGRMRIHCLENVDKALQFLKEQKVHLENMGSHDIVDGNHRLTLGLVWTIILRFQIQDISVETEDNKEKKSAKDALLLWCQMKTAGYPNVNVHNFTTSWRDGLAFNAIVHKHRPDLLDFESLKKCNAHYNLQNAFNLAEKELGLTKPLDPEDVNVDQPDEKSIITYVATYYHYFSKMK

ABD-L253P = target: T2, ABD-L253P (Homo sapiens, UniProt O15020, L253P); test: Sedimentation of ABD L253P without actin (aggregation); conditions: 10 μM
T2 construct: His-SUMO (cleaved yes); made in house; host or cells: E. coli BL21(DE3), pE-SUMOpro
Experimental: F-actin and ABD binding assays were performed as previously described. In brief, binding assays used 1 μM ABD protein, 1 μM F-actin and 1-50 μM compound (as indicated) or DMSO control for a total reaction volume of 60 μL in F-buffer containing 10 mM Tris, pH 7.5, 150 mM NaCl, 0.5 mM ATP, 2 mM MgCl2, and 1 mM DTT. Following 30 min incubation at room temperature (21° C.). F-actin was pelleted using centrifugation at 100,000×g at 25° C. for 30 min. Unbound ABD in the supernatant was measured following SDS-PAGE and Coomassie blue staining in accord. In addition, control co-sedimentations assays that lacked actin were performed to test if compounds cause ABD aggregation. […] Amount of mCherry was determined by acquiring fluorescence spectrum peak intensity at ˜600 nm using a spectral unmixing plate reader (Fluorescence Innovations, Inc) equipped with a 532 nm laser (Laserglow Technologies, Ontario, Canada) for excitation, 532 nm longpass filter for emission, and PMT for emission detection. The fraction of Lifeact-mCherry bound to F-actin was determined by subtracting from one the fraction of supernatant fluorescence intensity relative to the no-actin control sample, using the following equation: […]

CCOc1nc2cccc(C(=O)OC(C)OC(=O)OC3CCCCC3)c2n1Cc1ccc(-c2ccccc2-c2nnn[nH]2)cc1 (centres unmarked) [candesartan cilexetil]
previously found reduction of cell viability (mammalian cells): < 10%

CCOc1nc2cccc(C(=O)O)c2n1Cc1ccc(-c2ccccc2-c2nnn[nH]2)cc1 [candesartan]
effect on FRET in primary screen (Hit, 4SD threshold) ([1]; LOPAC compounds 10 μM, 120 min): decrease FRET | ABD L253P aggregation (pelleting without actin) (ABD-L253P): increases ABD pelleting; also recorded: promote aggregation

CCCCCCCC/C=C\CCCCCCCC(=O)NCc1ccc(O)c(OC)c1 [olvanil]
previously found reduction of cell viability (mammalian cells): < 10%

[H]/N=C(/NCCCCC)N/N=C/c1c[nH]c2ccc(OC)cc12 [tegaserod]
reduction of total FRET ([1]; 50 μM, HEK293-6E cells, relative to DMSO, listed as tegasarod): > 50%
